Results reported in the supplement of paper PMC10338343.
± gives the standard deviation. Some of the results follow. The uncertainty is large for many entries.

What follows are sequences tested on EfPiwi piRISC loaded with L1MC piRNA (26 nt) (assay: pre-steady-state target cleavage rate (min^-1); guide: L1MC piRNA 5'p-UAACUAAAUACUAUGCAAGCUGUAGG; MIWI and MILI are mouse PIWI proteins and EfPiwi is from a freshwater sponge; tags in brackets are library labels; higher = faster piRNA-guided slicing of the target). Settings: auxiliary factor: 500 nM Ephydatia muelleri Gtsf1.
Method: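 Cleave-'n-Seq: a library of target RNAs (target site in constant flanks) at […] was incubated with 1 nM active freshwater sponge Ephydatia fluviatilis Piwi piRISC (synthetic 5'-monophosphorylated piRNA guide) with or without 500 nM EmGtsf1 at 33 °C for 1 min to 16 h. Uncleaved targets were sequenced and the pooled three trials fitted to a burst-and-steady-state model to give the pre-steady-state cleavage rate (min^-1). Sequence is the target site only. Fits with R² ≤ 0 are excluded.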

Sequence | pre-steady-state target cleavage rate
UCCUGGAUGAGGAUGCAUAGUAUUUAGAAA | 0.0024 ± 0.0024
UCCUGCUACAGCUUGCAUAGAAUUUACAAA | 0.00254 ± 0.0035
UCCUGGAUGUCGAACGUUAGUAUUUAGUUU [g2:g13:cont:t1U] | 0.000157 ± 0.026
UCCUGGAUGUCCUUGCAAAGUAUUAAGUUA | 0.000341 ± 0.0084
UCCUGGAUGUCCUUGCAUUGUUUUUAGUUA | 0.000282 ± 0.01
UCCUGGAUGUCGUUGCAUAGUAUUUAAGUUA | 0.00159 ± 0.006
UCCUGGUACAGCUUGCAUAGUAUUUGUUA | 0.00241 ± 0.003
UCCUGGAUGAGCUUGCAUAGUAUUUAGUAA | 0.00367 ± 0.0022
UCCUGGAUGUCGAACGUAAUGUAUUUAGUUA | 0.000221 ± 0.026
UCCUGGAUGUCGUUGCAUGGUAUUUAGUUA | 0.000564 ± 0.0096
UCCUGGUACAGCUUGCAUACAUUUUAGUAA | 0.000215 ± 0.027
UCCUGCUACAGGUAGCAUAGUAUUUAGUUA | 0.0207 ± 0.0042
UCCUGGAUGUGCUUGCAUAGUAUUUAGAUA | 0.00271 ± 0.0028
UCCUGGAUCAGCUUGCAUAGAAUUUUGUUA | 0.00126 ± 0.0023
UCCUGGUACAGCUUGCUAAGUAUUUAGUUA | 0.000808 ± 0.0055
UCCUGGAUGAGCUUGCAUAGAUUUAGUUA | 0.000783 ± 0.0046
UCCUGGAACAGCUUGGAUAGUAUAUAGUUA | 0.00939 ± 0.0043
UCCUGGAUGUCGAAGCAUAGUAUUUAGUUUA | 0.002 ± 0.0055
UCCUCCUACAGCUUGCAUAGUAUUAACAAA | 0.00454 ± 0.0033
UCCUGGAACAGCUUGCAUAGUAGUUAGUUA | 0.00926 ± 0.0027
UCCUCCUACAGCUUGUCAUAGUAUUUAGUUA | 0.0546 ± 0.016
UCCUGGAUCUGCUUGCAUUGUAUUUAGUUA | 0.00657 ± 0.003
UCCUGGAUGUCCUUGUCAUAGUAUUUAGUUA | 0.00236 ± 0.0053
UCCUCCUACAGCUUGCAUACAAUUUAGUAA | 0.0035 ± 0.0038

Same assay, conditions: auxiliary factor: none (no Gtsf1)

Sequence | pre-steady-state target cleavage rate
UCCUGGAUGUCGAACGUUAGUAUUUAGUUU [g2:g13:cont:t1U] | < 0.0001
UCCUGCUACAGCUUGCAUAGUAUUUCGUUA | 0.000163 ± 0.036
UCCUGGAUGUCGUUGCAUAGUAUUUAAGUUA | 0.00146 ± 0.007
UCCUGGUACAGCUUGCAUAGUAUUUGUUA | 0.00101 ± 0.011
UCCUGGAUGAGCUUGCAUAGUAUUUAGUAA | 0.00092 ± 0.01
UCCUGGAUGUCGAACGUAAUGUAUUUAGUUA | < 0.0001
UCCUGGAUGUCGUUGCAUGGUAUUUAGUUA | 0.00168 ± 0.0066
UCCUGGAACAGCUUGUCAUAGUAUUUAGUUA | 0.00277 ± 0.0045
UCCUGGAUGUGCUUGCAUAGUAUUUAGAUA | 0.000542 ± 0.014
UCCUGGAUCAGCUUGCAUAGAAUUUUGUUA | 0.000173 ± 0.045
UCCUGGAACAGCUUGGAUAGUAUAUAGUUA | 0.000671 ± 0.012
UCCUCCUACAGCUUGCAUAGUAUUAACAAA | 0.000396 ± 0.012
UCCUGGAUGUCGAACGAAGUAUUUAGUUA | < 0.0001
UCCUGGAUCUGCUUGCAUUGUAUUUAGUUA | 0.000589 ± 0.018
UCCUGGAUGUCCUUGUCAUAGUAUUUAGUUA | 0.00011 ± 0.028
UCCUCCUACAGCUUGCAUACAAUUUAGUAA | 0.000538 ± 0.0098
